From article doi:10.1101/2020.12.21.423744

The chains behind the UniProt entries cited, without tags or fusion partners.
UniProt Q86WV6, whole entry: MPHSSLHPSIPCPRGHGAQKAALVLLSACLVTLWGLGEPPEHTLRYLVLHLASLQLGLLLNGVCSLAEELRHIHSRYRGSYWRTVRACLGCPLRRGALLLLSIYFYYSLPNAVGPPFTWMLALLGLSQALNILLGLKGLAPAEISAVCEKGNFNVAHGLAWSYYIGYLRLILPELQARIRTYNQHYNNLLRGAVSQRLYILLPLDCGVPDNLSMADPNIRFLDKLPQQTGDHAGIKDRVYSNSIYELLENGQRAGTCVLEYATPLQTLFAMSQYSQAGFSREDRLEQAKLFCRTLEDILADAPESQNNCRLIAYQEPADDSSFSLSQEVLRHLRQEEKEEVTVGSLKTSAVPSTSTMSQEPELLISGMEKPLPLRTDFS

B1: AATF (protein, UniProt Q9NY61 1-560)
chain: MAGPQPLALQLEQLLNPRPSEADPEADPEEATAARVIDRFDEGEDGEGDFLVVGSIRKLASASLLDTDKRYCGKTTSRKAWNEDHWEQTLPGSSDEEISDEEGSGDEDSEGLGLEEYDEDDLGAAEEQECGDHRESKKSRSHSAKTPGFSVQSISDFEKFTKGMDDLGSSEEEEDEESGMEEGDDAEDSQGESEEDRAGDRNSEDDGVVMTFSSVKVSEEVEKGRAVKNQIALWDQLLEGRIKLQKALLTTNQLPQPDVFPLFKDKGGPEFSSALKNSHKALKALLRSLVGLQEELLFQYPDTRYLVDGTKPNAGSEEISSEDDELVEEKKQQRRRVPAKRKLEMEDYPSFMAKRFADFTVYRNRTLQKWHDKTKLASGKLGKGFGAFERSILTQIDHILMDKERLLRRTQTKRSVYRVLGKPEPAAQPVPESLPGEPEILPQAPANAHLKDLDEEIFDDDDFYHQLLRELIERKTSSLDPNDQVAMGRQWLAIQKLRSKIHKKVDRKASKGRKLRFHVLSKLLSFMAPIDHTTMNDDARTELYRSLFGQLHPPDEGHGD
B2: DDX23, Q9BUQ8 1-820 (protein)
chain: MAGELADKKDRDASPSKEERKRSRTPDRERDRDRDRKSSPSKDRKRHRSRDRRRGGSRSRSRSRSKSAERERRHKERERDKERDRNKKDRDRDKDGHRRDKDRKRSSLSPGRGKDFKSRKDRDSKKDEEDEHGDKKPKAQPLSLEELLAKKKAEEEAEAKPKFLSKAEREAEALKRRQQEVEERQRMLEEERKKRKQFQDLGRKMLEDPQERERRERRERMERETNGNEDEEGRQKIREEKDKSKELHAIKERYLGGIKKRRRTRHLNDRKFVFEWDASEDTSIDYNPLYKERHQVQLLGRGFIAGIDLKQQKREQSRFYGDLMEKRRTLEEKEQEEARLRKLRKKEAKQRWDDRHWSQKKLDEMTDRDWRIFREDYSITTKGGKIPNPIRSWKDSSLPPHILEVIDKCGYKEPTPIQRQAIPIGLQNRDIIGVAETGSGKTAAFLIPLLVWITTLPKIDRIEESDQGPYAIILAPTRELAQQIEEETIKFGKPLGIRTVAVIGGISREDQGFRLRMGCEIVIATPGRLIDVLENRYLVLSRCTYVVLDEADRMIDMGFEPDVQKILEHMPVSNQKPDTDEAEDPEKMLANFESGKHKYRQTVMFTATMPPAVERLARSYLRRPAVVYIGSAGKPHERVEQKVFLMSESEKRKKLLAILEQGFDPPIIIFVNQKKGCDVLAKSLEKMGYNACTLHGGKGQEQREFALSNLKAGAKDILVATDVAGRGIDIQDVSMVVNYDMAKNIEDYIHRIGRTGRAGKSGVAITFLTKEDSAVFYELKQAILESPVSSCPPELANHPDAQHKPGTILTKKRREETIFA
B3: TBK1, Q9UHD2 1-729 (protein)
chain: MQSTSNHLWLLSDILGQGATANVFRGRHKKTGDLFAIKVFNNISFLRPVDVQMREFEVLKKLNHKNIVKLFAIEEETTTRHKVLIMEFCPCGSLYTVLEEPSNAYGLPESEFLIVLRDVVGGMNHLRENGIVHRDIKPGNIMRVIGEDGQSVYKLTDFGAARELEDDEQFVSLYGTEEYLHPDMYERAVLRKDHQKKYGATVDLWSIGVTFYHAATGSLPFRPFEGPRRNKEVMYKIITGKPSGAISGVQKAENGPIDWSGDMPVSCSLSRGLQVLLTPVLANILEADQEKCWGFDQFFAETSDILHRMVIHVFSLQQMTAHKIYIHSYNTATIFHELVYKQTKIISSNQELIYEGRRLVLEPGRLAQHFPKTTEENPIFVVSREPLNTIGLIYEKISLPKVHPRYDLDGDASMAKAITGVVCYACRIASTLLLYQELMRKGIRWLIELIKDDYNETVHKKTEVVITLDFCIRNIEKTVKVYEKLMKINLEAAELGEISDIHTKLLRLSSSQGTIETSLQDIDSRLSPGGSLADAWAHQEGTHPKDRNVEKLQVLLNCMTEIYYQFKKDKAERRLAYNEEQIHKFDKQKLYYHATKAMTHFTDECVKKYEAFLNKSEEWIRKMLHLRKQLLSLTNQCFDIEEEVSKYQEYTNELQETLPQKMFTASSGIKHTMTPIYPSSNTLVEMTLGMKKLKEEMEGVVKELAENNHILERFGSLTMDGGLRNVDCL

What was measured:
[1] = molecular target: STING-GFP (STimulator of INterferon Genes fused to GFP) (UniProt Q86WV6); assay: affinity purification with mass spectrometry
[2] = molecular target: STING-GFP (STimulator of INterferon Genes fused to GFP), Q86WV6; assay: affinity purification with mass spectrometry; conditions: remark: other sources report otherwise

| Binder | binding [1] | binding [2] |
| --- | --- | --- |
| B1 | binds | – |
| B2 | – | binds |
| B3 | – | no binding |

Results are given in words; binding and its absence hold for the method and conditions named. Binding seen in cells or lysates may run through a third protein. A yes stands for co-enrichment or nearness to the bait. Other partners may have been found. For part of these data: A no says only that the protein was not detected with the bait.
